Laboratory results published in publication PMC6398486.
Results are given in words; binding and its absence hold for the method and conditions named. Binding seen in cells or lysates may run through a third protein. Some results given as binding are weak or reduced against the parent protein; the word gives no strength.

The chains behind the UniProt entries cited, without tags or fusion partners. Residues count along the entry.
UniProt Q55FG3, residues 2725-3848: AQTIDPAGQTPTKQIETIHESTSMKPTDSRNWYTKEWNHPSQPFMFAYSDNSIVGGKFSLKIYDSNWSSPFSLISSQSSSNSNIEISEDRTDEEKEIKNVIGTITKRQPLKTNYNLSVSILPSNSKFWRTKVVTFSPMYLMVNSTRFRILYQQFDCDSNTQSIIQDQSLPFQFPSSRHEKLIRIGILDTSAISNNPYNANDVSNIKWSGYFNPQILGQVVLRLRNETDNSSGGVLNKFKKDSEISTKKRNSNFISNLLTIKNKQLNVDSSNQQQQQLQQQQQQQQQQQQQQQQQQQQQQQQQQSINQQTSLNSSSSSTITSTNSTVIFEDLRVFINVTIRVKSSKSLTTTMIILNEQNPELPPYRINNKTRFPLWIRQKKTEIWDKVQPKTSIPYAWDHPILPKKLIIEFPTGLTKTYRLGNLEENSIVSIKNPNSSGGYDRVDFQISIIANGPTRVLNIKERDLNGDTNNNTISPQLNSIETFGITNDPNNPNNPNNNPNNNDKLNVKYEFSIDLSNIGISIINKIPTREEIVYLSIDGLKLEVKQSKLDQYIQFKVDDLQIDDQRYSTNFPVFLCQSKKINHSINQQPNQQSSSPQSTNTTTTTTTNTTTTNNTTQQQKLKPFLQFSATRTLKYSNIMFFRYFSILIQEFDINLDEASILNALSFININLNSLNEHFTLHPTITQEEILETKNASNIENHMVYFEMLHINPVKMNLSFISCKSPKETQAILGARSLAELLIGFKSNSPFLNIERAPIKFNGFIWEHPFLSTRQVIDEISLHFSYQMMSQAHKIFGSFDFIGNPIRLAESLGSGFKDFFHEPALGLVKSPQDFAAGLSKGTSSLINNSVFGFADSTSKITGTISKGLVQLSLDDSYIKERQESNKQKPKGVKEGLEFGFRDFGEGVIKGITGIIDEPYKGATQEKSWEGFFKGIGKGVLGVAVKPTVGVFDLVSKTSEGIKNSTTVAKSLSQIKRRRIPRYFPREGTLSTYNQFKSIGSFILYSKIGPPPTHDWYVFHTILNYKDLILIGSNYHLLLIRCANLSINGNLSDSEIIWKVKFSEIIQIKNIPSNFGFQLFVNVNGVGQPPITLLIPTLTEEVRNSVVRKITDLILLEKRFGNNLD
UniProt P36411: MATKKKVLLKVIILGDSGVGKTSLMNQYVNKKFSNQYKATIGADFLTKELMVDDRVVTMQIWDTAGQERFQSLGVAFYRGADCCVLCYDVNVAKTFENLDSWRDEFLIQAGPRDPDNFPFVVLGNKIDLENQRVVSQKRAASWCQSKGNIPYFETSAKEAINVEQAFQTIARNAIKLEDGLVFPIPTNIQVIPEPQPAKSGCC

Molecular target: C-terminal region of TipC (amino acids 2725-3848) fused to GFP (D. discoideum) (UniProt Q55FG3)
Test: co-IP; GFP-Trap A beads on lysates of D. discoideum tipC- cells overexpressing HA-Rab7A with TipC^2725-3848-GFP or GFP alone; western blot with anti-HA and anti-GFP; 10 mM Tris-HCl pH 7.5, 150 mM NaCl, 4 h at 4°C

Substance: hemagglutinin (HA)-tagged Rab7A (from UniProt P36411 1-203)
- binding: binds
